This continues a long series; more values of the same kind are listed elsewhere.
Tests used:
Type in all cases: cell-based
[1] = molecular target: T1, RNA polymerase II (Mus musculus) (UniProt P08775+Q8CFI7+P97760+A0A3Q4L2S8+Q80UW8+P61219+P62488+Q923G2+P60898+O08740+Q63871+P62876); assay: Inhibition of RNA polymerase II in mouse B16-F1 migrating cells assessed as fold change in Surf6-RNA stability at 0.1 mM measured by ChIP-seq analysis relative to control cells
[2] = molecular target: T1, RNA polymerase II (Mus musculus); assay: Inhibition of RNA polymerase II in mouse B16-F1 migrating cells assessed as fold change in Ssr3-RNA stability at 0.1 mM measured by ChIP-seq analysis relative to control cells
[3] = molecular target: T1, RNA polymerase II (Mus musculus); assay: Inhibition of RNA polymerase II in mouse B16-F1 migrating cells assessed as fold change in Tmed3-RNA stability at 0.1 mM measured by ChIP-seq analysis relative to control cells
[4] = molecular target: T1, RNA polymerase II (Mus musculus); assay: Inhibition of RNA polymerase II in mouse B16-F1 migrating cells assessed as fold change in Ankrd49-RNA stability at 0.1 mM measured by ChIP-seq analysis relative to control cells
[5] = molecular target: T1, RNA polymerase II (Mus musculus); assay: Inhibition of RNA polymerase II in mouse B16-F1 migrating cells assessed as fold change in Plekha6-RNA stability at 0.1 mM measured by ChIP-seq analysis relative to control cells
[6] = molecular target: T1, RNA polymerase II (Mus musculus); assay: Inhibition of RNA polymerase II in mouse B16-F1 migrating cells assessed as fold change in Aup1-RNA stability at 0.1 mM measured by ChIP-seq analysis relative to control cells
[7] = molecular target: T1, RNA polymerase II (Mus musculus); assay: Inhibition of RNA polymerase II in mouse B16-F1 migrating cells assessed as fold change in Tmem219-RNA stability at 0.1 mM measured by ChIP-seq analysis relative to control cells
[8] = molecular target: T1, RNA polymerase II (Mus musculus); assay: Inhibition of RNA polymerase II in mouse B16-F1 migrating cells assessed as fold change in Strn3-RNA stability at 0.1 mM measured by ChIP-seq analysis relative to control cells
[9] = molecular target: T1, RNA polymerase II (Mus musculus); assay: Inhibition of RNA polymerase II in mouse B16-F1 migrating cells assessed as fold change in Etv3-RNA stability at 0.1 mM measured by ChIP-seq analysis relative to control cells
[10] = molecular target: T1, RNA polymerase II (Mus musculus); assay: Inhibition of RNA polymerase II in mouse B16-F1 migrating cells assessed as fold change in Nudcd2-RNA stability at 0.1 mM measured by ChIP-seq analysis relative to control cells
[11] = molecular target: T1, RNA polymerase II (Mus musculus); assay: Inhibition of RNA polymerase II in mouse B16-F1 migrating cells assessed as fold change in Slk-RNA stability at 0.1 mM measured by ChIP-seq analysis relative to control cells
[12] = molecular target: T1, RNA polymerase II (Mus musculus); assay: Inhibition of RNA polymerase II in mouse B16-F1 migrating cells assessed as fold change in Tmem30a-RNA stability at 0.1 mM measured by ChIP-seq analysis relative to control cells
[13] = molecular target: T1, RNA polymerase II (Mus musculus); assay: Inhibition of RNA polymerase II in mouse B16-F1 migrating cells assessed as fold change in Susd6-RNA stability at 0.1 mM measured by ChIP-seq analysis relative to control cells
[14] = molecular target: T1, RNA polymerase II (Mus musculus); assay: Inhibition of RNA polymerase II in mouse B16-F1 migrating cells assessed as fold change in Xrn2-RNA stability at 0.1 mM measured by ChIP-seq analysis relative to control cells
[15] = molecular target: T1, RNA polymerase II (Mus musculus); assay: Inhibition of RNA polymerase II in mouse B16-F1 migrating cells assessed as fold change in Chuk-RNA stability at 0.1 mM measured by ChIP-seq analysis relative to control cells
[16] = molecular target: T1, RNA polymerase II (Mus musculus); assay: Inhibition of RNA polymerase II in mouse B16-F1 migrating cells assessed as fold change in Ubl7-RNA stability at 0.1 mM measured by ChIP-seq analysis relative to control cells
[17] = molecular target: T1, RNA polymerase II (Mus musculus); assay: Inhibition of RNA polymerase II in mouse B16-F1 migrating cells assessed as fold change in Lrrfip1-RNA stability at 0.1 mM measured by ChIP-seq analysis relative to control cells
[18] = molecular target: Histone-lysine N-methyltransferase EZH2 (Mus musculus) (UniProt Q61188); assay: Inhibition of EZH2 in mouse B16-F1 migrating cells assessed as fold change in H3K27me3-buffered regulated 2810403A07Rik-mRNA expression at 3 uM measured by ChIP-seq analysis relative to control cells
[19] = molecular target: Histone-lysine N-methyltransferase EZH2 (Mus musculus) (UniProt Q61188); assay: Inhibition of EZH2 in mouse B16-F1 migrating cells assessed as fold change in H3K27me3-buffered regulated Zan-mRNA expression at 3 uM measured by ChIP-seq analysis relative to control cells
[20] = molecular target: Histone-lysine N-methyltransferase EZH2 (Mus musculus) (UniProt Q61188); assay: Inhibition of EZH2 in mouse B16-F1 migrating cells assessed as fold change in H3K27me3-buffered regulated Rap2b-mRNA expression at 3 uM measured by ChIP-seq analysis relative to control cells
[21] = molecular target: Histone-lysine N-methyltransferase EZH2 (Mus musculus) (UniProt Q61188); assay: Inhibition of EZH2 in mouse B16-F1 migrating cells assessed as fold change in H3K27me3-independent regulated Rhov-mRNA expression at 3 uM measured by ChIP-seq analysis relative to control cells
[22] = molecular target: Histone-lysine N-methyltransferase EZH2 (Mus musculus) (UniProt Q61188); assay: Inhibition of EZH2 in mouse B16-F1 migrating cells assessed as fold change in H3K27me3-buffered regulated Sox9-mRNA expression at 3 uM measured by ChIP-seq analysis relative to control cells
[23] = molecular target: Histone-lysine N-methyltransferase EZH2 (Mus musculus) (UniProt Q61188); assay: Inhibition of EZH2 in mouse B16-F1 migrating cells assessed as fold change in H3K27me3-independent regulated Pak3-mRNA expression at 3 uM measured by ChIP-seq analysis relative to control cells
[24] = molecular target: Histone-lysine N-methyltransferase EZH2 (Mus musculus) (UniProt Q61188); assay: Inhibition of EZH2 in mouse B16-F1 migrating cells assessed as fold change in H3K27me3-dependent regulated Dusp8-mRNA expression at 3 uM measured by ChIP-seq analysis relative to control cells
[25] = molecular target: Histone-lysine N-methyltransferase EZH2 (Mus musculus) (UniProt Q61188); assay: Inhibition of EZH2 in mouse B16-F1 migrating cells assessed as fold change in H3K27me3-independent regulated Srxn1-mRNA expression at 3 uM measured by ChIP-seq analysis relative to control cells
[26] = molecular target: Histone-lysine N-methyltransferase EZH2 (Mus musculus) (UniProt Q61188); assay: Inhibition of EZH2 in mouse B16-F1 migrating cells assessed as fold change in H3K27me3-buffered regulated Galnt7-mRNA expression at 3 uM measured by ChIP-seq analysis relative to control cells
[27] = molecular target: Histone-lysine N-methyltransferase EZH2 (Mus musculus) (UniProt Q61188); assay: Inhibition of EZH2 in mouse B16-F1 migrating cells assessed as fold change in H3K27me3-buffered regulated Rif1-mRNA expression at 3 uM measured by ChIP-seq analysis relative to control cells
[28] = molecular target: Histone-lysine N-methyltransferase EZH2 (Mus musculus) (UniProt Q61188); assay: Inhibition of EZH2 in mouse B16-F1 migrating cells assessed as fold change in H3K27me3-dependent regulated Hmgn5-mRNA expression at 3 uM measured by ChIP-seq analysis relative to control cells
[29] = molecular target: Histone-lysine N-methyltransferase EZH2 (Mus musculus) (UniProt Q61188); assay: Inhibition of EZH2 in mouse B16-F1 migrating cells assessed as fold change in H3K27me3-independent regulated Ak4-mRNA expression at 3 uM measured by ChIP-seq analysis relative to control cells
[30] = molecular target: Histone-lysine N-methyltransferase EZH2 (Mus musculus) (UniProt Q61188); assay: Inhibition of EZH2 in mouse B16-F1 migrating cells assessed as fold change in H3K27me3-buffered regulated Ube2j1-mRNA expression at 3 uM measured by ChIP-seq analysis relative to control cells

Sequences of proteins named here, by UniProt entry; tags and fusion partners are left off.
UniProt Q61188, whole entry: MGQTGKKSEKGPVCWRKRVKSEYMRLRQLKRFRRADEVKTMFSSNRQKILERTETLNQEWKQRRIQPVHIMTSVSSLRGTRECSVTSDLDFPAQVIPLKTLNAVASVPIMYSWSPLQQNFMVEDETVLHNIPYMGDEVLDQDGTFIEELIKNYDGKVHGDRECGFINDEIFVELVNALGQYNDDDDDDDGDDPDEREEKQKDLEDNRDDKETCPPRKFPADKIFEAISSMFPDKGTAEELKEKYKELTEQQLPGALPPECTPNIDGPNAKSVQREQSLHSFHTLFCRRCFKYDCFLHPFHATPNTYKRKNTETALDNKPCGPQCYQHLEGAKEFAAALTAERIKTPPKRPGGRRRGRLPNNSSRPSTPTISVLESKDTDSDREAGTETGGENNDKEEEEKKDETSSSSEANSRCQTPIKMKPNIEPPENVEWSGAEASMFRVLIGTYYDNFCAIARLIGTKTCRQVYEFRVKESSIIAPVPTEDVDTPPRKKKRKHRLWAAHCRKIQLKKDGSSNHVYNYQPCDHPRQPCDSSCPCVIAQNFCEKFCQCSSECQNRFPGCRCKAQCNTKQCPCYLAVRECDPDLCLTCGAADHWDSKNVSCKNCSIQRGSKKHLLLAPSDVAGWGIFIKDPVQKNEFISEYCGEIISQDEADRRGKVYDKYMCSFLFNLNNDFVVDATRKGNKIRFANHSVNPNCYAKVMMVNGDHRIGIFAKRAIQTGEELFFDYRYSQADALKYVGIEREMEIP

## OC[C@H]1O[C@@H](n2cnc3cc(Cl)c(Cl)cc32)[C@H](O)[C@@H]1O
[1]
  log2FC: -0.49
[2]
  log2FC: -0.43
[3]
  log2FC: 0.53
[4]
  log2FC: -0.87
[5]
  log2FC: 1.09
[6]
  log2FC: 0.43
[7]
  log2FC: 0.49
[8]
  log2FC: -0.71
[9]
  log2FC: -0.63
[10]
  log2FC: -0.42
[11]
  log2FC: -0.76
[12]
  log2FC: -0.72
[13]
  log2FC: -0.53
[14]
  log2FC: -0.46
[15]
  log2FC: -0.59
[16]
  log2FC: 0.54
[17]
  log2FC: -0.39

## CCCc1cc(C)[nH]c(=O)c1CNC(=O)c1cc(-c2ccnc(N3CCN(C)CC3)c2)cc2c1cnn2C(C)C
[18]
  log2FC: -0.52
[19]
  log2FC: -0.95
[20]
  log2FC: -0.38
[21]
  log2FC: 2.23
[22]
  log2FC: 0.48
[23]
  log2FC: 0.79
[24]
  log2FC: 0.26
[25]
  log2FC: 0.91
[26]
  log2FC: -0.49
[27]
  log2FC: -0.43
[28]
  log2FC: -0.32
[29]
  log2FC: -0.92
[30]
  log2FC: 0.51

— ChEMBL document CHEMBL5674883, “The Heterochromatin Landscape in Migrating Cells and the Importance of H3K27me3 for Associated Transcriptome Alterations” (Cells, 2018)
